Test results taken from PubChem BioAssay AID504444 (National Center for Advancing Translational Sciences (NCATS), 2011).
“And” between values parts separate entries of the source, which are not always exact repeats. Equal entries are not always repeated. Hit rate of the full screen: of about 360,000 compounds, about 7,500 (2.1%) were called active. This list was built around the results that the source calls inconclusive (neither active nor inactive); the mix of calls is not that of the screen. Calls come from the whole dose curve; as a rule, active = well fitted inhibition curve with a large enough effect; inconclusive = small, poorly fitted or top-dose-only effect, or effect the other way; inactive = flat fitted curve, though single readings scatter. A potency beside an inconclusive call is a rough fit, not a confirmed value.

Test: Nrf2 qHTS screen for inhibitors; note: nearly all actives have a fitted effect of over 60% in size
Conditions: A549 ARE-Fluc reporter, luciferase luminescence, 18-24 h; activity change, negative = inhibition: at 46 µM (top of the series)
Procedure, shortened: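 A549 ARE_Fluc cells (5000/well, 5% FBS OPTI-MEM) pre-incubated 2 h, then treated with compounds 18-24 h at 37C/5% CO2 in concentration-response. CellTiter-Fluor viability read first; BugLite luciferase luminescence after 15 min at room temperature gives Nrf2 activity.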
% is set by controls: 0 for no effect and ±100 for the full control effect; potency is the fitted concentration of half-maximal effect.

Structure (SMILES)	Potency	activity change, negative = inhibition
Cc1[nH]n(-c2ccccc2)c(=O)c1N=Nc1nccs1	inconclusive: 25.9 µM [falling, single point]	
Cc1ccc2c(c1)N(C(=O)CCC(=O)NCc1cccs1)CCO2	inconclusive: 29.1 µM [falling, single point]	
CCCN1C(=O)c2ccccc2NC1c1ccc(OC)c(COc2cccc(C)c2C)c1 (stereo unspecified)	active: 25.9 µM	
O=C(COC(=O)/C=C/c1ccco1)Nc1cc(S(=O)(=O)N2CCOCC2)ccc1Cl		inactive: -28.5%
COc1ccc(-c2nc(-n3c(C)c(C(C)=O)c(C(C)=O)c3C)sc2C)cc1	inconclusive: 18.4 µM [falling, single point]	
COc1ccc(Nc2nc3cc(Cl)c(Cl)cc3n3cnnc23)cc1Cl		inactive: 17.4%
Nc1c(Cl)ncnc1NCCc1ccc(O)cc1	active: 5.8 µM	
CC(=O)C1=C(O)C(=O)N(CCCN2CCOCC2)C1c1ccccc1[N+](=O)[O-] (stereo unspecified)	inconclusive: 2.59 µM [activator, partial curve]	
Nc1ccccc1NC(=O)c1ccccc1N	inconclusive: 20.6 µM [activator, single point]	
O=C(Nc1nnc(S(=O)(=O)N2CCCC2)s1)c1ccccc1Br	inconclusive: 18.4 µM [activator, partial curve] and inconclusive: 4.11 µM [activator, single point]	
Cc1ccccc1Cn1nnc2c(=O)[nH]c(C3CCCN(C(=O)c4ccc(F)cc4)C3)nc21 (stereo unspecified)	inconclusive: 23.1 µM [activator, single point]	
CCOC(=O)c1sc(NC(=O)c2ccc(S(=O)(=O)N3CCCCCC3)cc2)nc1-c1ccccc1	inconclusive: 18.4 µM [falling, partial curve, poor fit]	
O=C(NC1(C(F)(F)F)N=C(c2ccccc2)NC1=O)c1ccc(Cl)cc1Cl (stereo unspecified)		inactive: 7.86%
Cc1ccc(-c2nc3cc(NC(=O)C(C)C)ccc3o2)cc1	inconclusive: 0.231 µM [activator, full curve]	
S=c1[nH]nc(COc2ccc(Cl)cc2)n1C1CCCCC1	inconclusive: 20.6 µM [falling, single point]	
COc1ccc(CCN(C)Cc2ccc(C(=O)Nc3ccccc3)cc2)cc1OC	inconclusive: 32.6 µM [falling, partial curve, poor fit]	
CCn1ncc([N+](=O)[O-])c1C(=O)n1nc(C)cc1C	inconclusive: 6.51 µM [activator, partial curve]	
CC(=O)c1ccc(NC(=O)C(C)n2nc(-c3ccccc3)c3cc(Cl)ccc32)cc1 (stereo unspecified)	inconclusive: 29.1 µM [falling, single point]	
CCn1ncc(C(=O)Nc2cccc(Cl)c2)c1C	inconclusive: 7.31 µM [activator, partial curve]	
CCOC(=O)c1cc(-c2ccccc2)sc1NC(=O)C(C)OC(=O)c1cccnc1OCC (stereo unspecified)	inconclusive: 3.66 µM [falling, single point]	
COC(=O)c1ccccc1NC(=O)c1nc(S(=O)(=O)Cc2cccc(C)c2)ncc1Cl		inactive: 20.4%
Nc1nnc(SCC(=O)Nc2ccc3nc(SCC(=O)Nc4ccccc4)sc3c2)s1	inconclusive: 18.4 µM [falling, single point]	

Structure (SMILES)	Potency	activity change, negative = inhibition
CC(=O)Oc1ccc(N(C(C)=O)S(=O)(=O)c2ccc3ccccc3c2)cc1Br	inconclusive: 16.4 µM [falling, single point]	
Cc1ccc(NC(=O)C2CC(=O)N/C(=N/N=C/c3ccco3)S2)cc1 (stereo unspecified)		inactive: -5.02%
Clc1ccc(CSc2nnc(-c3c[nH]c4ccccc34)o2)cc1	inconclusive: 10.3 µM [falling, single point]	
CCOc1ccc(-c2cc(-c3nc(-c4cc(OC)c(OC)c(OC)c4)no3)[nH]n2)cc1Cl		inactive: 19%
C[C@H]1CN([C@@H](C)CO)C(=O)Cc2cc(NC(=O)CCC(F)(F)F)ccc2O[C@H]1CN(C)Cc1ccc(-c2ccccc2)cc1	inconclusive: 29.1 µM [falling, single point]	
C=CCNC(=O)c1ccc2nccnc2c1	inconclusive: 5.8 µM [falling, full curve, poor fit]	
Cc1ccc(-n2nc(CO)c(C(=O)NCc3cccs3)n2)cc1C		inactive: 6.13%
CCOC(=O)c1c(C)[nH]c(O)c1C=Nc1ccc(Cl)cc1	inconclusive: 18.4 µM [falling, partial curve, poor fit]	
CCOc1cccc(-c2c(C(=O)N/N=C(\C)c3cccs3)nnn2-c2nonc2N)c1	inconclusive: 14.6 µM [falling, single point]	
COC(=O)c1cc(NC(=O)[C@H](CCS(C)(=O)=O)N2Cc3ccccc3C2=O)cc(C(=O)OC)c1		inactive: 3%
CCCCC(=O)N1CC(=O)Nc2ccc(F)cc2C1c1ccccc1 (stereo unspecified)	inconclusive: 18.4 µM [falling, partial curve, poor fit]	
COc1nc(-c2ccc(C)cc2)ccc1-c1noc(-c2cccnc2)n1	inconclusive: 14.6 µM [activator, partial curve, poor fit]	
CCc1ccc(-c2nc3cc(NC(=O)c4cc5ccccc5cc4OC)ccc3o2)cc1	inconclusive: 0.206 µM [falling, full curve, poor fit]	
CCCCN1C(=O)/C(=C2/Sc3ccccc3N2C)S/C1=N\c1ncn[nH]1	inconclusive: 13 µM [falling, partial curve, poor fit]	
CCCCOc1ccccc1NC(=O)CC1Nc2ccccc2NC1=O (stereo unspecified)	inconclusive: 8.2 µM [falling, partial curve, poor fit]	
COCCN(C(=O)c1ccc(-c2ccc(Cl)cc2)o1)c1c(N)n(Cc2ccccc2)c(=O)[nH]c1=O	inconclusive: 2.91 µM [activator, full curve, poor fit]	
COc1cc(NC(=O)Cn2ncc(Cl)c(Cl)c2=O)c(C)cc1[N+](=O)[O-]	inconclusive: 32.6 µM [falling, single point]	
O=C1c2ccccc2OC2(C=Cc3ccccc3O2)N1Cc1ccccc1 (stereo unspecified)		inactive: -6.22%
COc1cc(CNC2CCCC2)cc(Cl)c1OCc1ccccc1F		inactive: 8.98%
COc1ccccc1NC(=O)C12CC3CC(C1)CC(c1ccc(C)cc1)(C3)C2	inconclusive: 9.2 µM [activator, partial curve, poor fit]	
COc1cc(C2CC(=O)N(Cc3ccc(F)cc3)c3ccccc3S2)cc(OC)c1OC (stereo unspecified)	active: 16.4 µM	
COc1cc(OC)c(NC(=O)c2cc3ccccc3cc2O)cc1Cl	active: 25.9 µM	

Among those listed so far, these contain an aryl thioether with sulfur outside any ring.
Structure (SMILES)	Potency	activity change, negative = inhibition
Nc1nnc(SCC(=O)Nc2ccc3nc(SCC(=O)Nc4ccccc4)sc3c2)s1	inconclusive: 18.4 µM [falling, single point]	
Clc1ccc(CSc2nnc(-c3c[nH]c4ccccc34)o2)cc1	inconclusive: 10.3 µM [falling, single point]	

Remaining list, next part:

Structure (SMILES)	Potency	activity change, negative = inhibition
CC(C)CC(=O)Nc1ccc(S(=O)(=O)Nc2cc3c(cc2N2CCOCC2)n(C)c(=O)c(=O)n3C)cc1	inconclusive: 29.1 µM [falling, single point]	
Cc1ccc(NC(=O)c2cn3c4c(ccc(Cl)c4c2=O)OC(C)C3)c(C)c1 (stereo unspecified)	inconclusive: 32.6 µM [activator, single point]	
O=C(CCc1cn(Cc2ccccc2Cl)c2ccccc12)NC1CCCCC1	inconclusive: 20.6 µM [falling, single point]	
CCN(CC(=O)Nc1ccc2c(c1)OCCO2)c1ccc(S(=O)(=O)N2CCOCC2)cn1	inconclusive: 29.1 µM [activator, single point]	
O=C(NCc1ccc(Cl)cc1)C1CCN(S(=O)(=O)c2ccc(N3CCCC3=O)cc2)CC1	inconclusive: 18.4 µM [falling, partial curve, poor fit]	
CN(C)CCN(C(=O)CN1C(=O)c2ccccc2C1=O)c1nc2cc3c(cc2s1)OCCO3	inconclusive: 8.2 µM [activator, partial curve]	
COc1cccc(C(=O)OCC(=O)NCC2CCCO2)c1 (stereo unspecified)		inactive: -3.53%
Cc1ccc(N(CC(=O)N=Nc2c(O)[nH]c3ccccc23)S(C)(=O)=O)c(C)c1	inconclusive: 32.6 µM [falling, single point]	
C/C(N)=C(/C#N)C(=O)COC(=O)c1cc(-c2ccc(Br)cc2)nc2ccccc12	inconclusive: 11.6 µM [falling, partial curve]	
COc1ccc(CNC(=O)c2cc(-c3cccc(Cl)c3)on2)cc1		inactive: 3.73%
O=C(CSc1ccccc1)Nc1ccc(Cl)c(S(=O)(=O)N2CCOCC2)c1	active: 23.1 µM	
COc1ccc2[nH]c(=O)c(CNc3cc(C)ccc3C)cc2c1	active: 18.4 µM	
Cc1cccc(C(=O)OCC(=O)N2CCCCCC2)c1C	inconclusive: 9.2 µM [activator, partial curve]	
CC1CCCCN1S(=O)(=O)c1ccc(C(=O)Nc2ccccc2-c2nc3ccccc3[nH]2)cc1 (stereo unspecified)	active: 23.1 µM	
COc1ccc(-n2ncc(C(=O)N3CCN(c4ncccn4)CC3)c2C2CCN(C(=O)OC(C)(C)C)CC2)cc1		inactive: 21.1%
CCNCc1ccc(OCc2cccs2)c(OCC)c1		inactive: 3.63%
CCCCCNC(=O)CCCCn1c(=O)[nH]c2cc(OCC)c(OCC)cc2c1=O		inactive: 3.43%
Cc1cc(C)cc(NC(=O)CCCN2C(=O)COc3ccc(C)cc32)c1	inconclusive: 8.2 µM [falling, partial curve, poor fit]	
Cc1occc1C(=O)Nc1ccc2c(c1)CCC2	inconclusive: 7.31 µM [activator, partial curve]	
Cc1cccc(NC(=O)Cn2c(=O)n(CCC(=O)NC3CCCC3)c(=O)c3ccccc32)c1	inconclusive: 32.6 µM [falling, partial curve, poor fit]	
O=C(Nc1ccccc1N1CCN(C(=O)c2ccc(Cl)cc2)CC1)c1ccc2c(c1)OCO2	inconclusive: 8.2 µM [falling, partial curve]	
C=C(CN(C)C)C(=O)c1cc(C)ccc1C	inconclusive: 10.3 µM [falling, single point]	

Some of the entries so far, as a markdown table:

| Structure (SMILES) | Potency | activity change, negative = inhibition |
| --- | --- | --- |
| CC(=O)Oc1ccc(N(C(C)=O)S(=O)(=O)c2ccc3ccccc3c2)cc1Br | inconclusive: 16.4 µM [falling, single point] |  |
| Clc1ccc(CSc2nnc(-c3c[nH]c4ccccc34)o2)cc1 | inconclusive: 10.3 µM [falling, single point] |  |
